Reference: publication PMC10208982, “Structural basis of catalytic activation in human splicing” (Nature, 2023)
No constants are given. Whether binding was seen depends on the method and setting. In cells and extracts the contact can be indirect. Some results given as binding are weak or reduced against the parent protein; the word gives no strength.

Sequences of proteins named here, by UniProt entry; tags and fusion partners are left off.
UniProt Q9UNP9: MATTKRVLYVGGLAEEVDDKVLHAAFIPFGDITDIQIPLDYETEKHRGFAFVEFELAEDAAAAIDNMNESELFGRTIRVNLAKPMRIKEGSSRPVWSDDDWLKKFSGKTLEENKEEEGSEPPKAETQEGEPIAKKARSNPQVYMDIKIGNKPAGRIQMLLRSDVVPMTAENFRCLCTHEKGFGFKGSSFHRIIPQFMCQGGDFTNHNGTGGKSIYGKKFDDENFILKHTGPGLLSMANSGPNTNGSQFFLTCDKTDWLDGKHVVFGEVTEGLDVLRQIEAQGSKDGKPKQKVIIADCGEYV

T1: Aquarius (wild type) (human) (UniProt O60306)
T1 sequence: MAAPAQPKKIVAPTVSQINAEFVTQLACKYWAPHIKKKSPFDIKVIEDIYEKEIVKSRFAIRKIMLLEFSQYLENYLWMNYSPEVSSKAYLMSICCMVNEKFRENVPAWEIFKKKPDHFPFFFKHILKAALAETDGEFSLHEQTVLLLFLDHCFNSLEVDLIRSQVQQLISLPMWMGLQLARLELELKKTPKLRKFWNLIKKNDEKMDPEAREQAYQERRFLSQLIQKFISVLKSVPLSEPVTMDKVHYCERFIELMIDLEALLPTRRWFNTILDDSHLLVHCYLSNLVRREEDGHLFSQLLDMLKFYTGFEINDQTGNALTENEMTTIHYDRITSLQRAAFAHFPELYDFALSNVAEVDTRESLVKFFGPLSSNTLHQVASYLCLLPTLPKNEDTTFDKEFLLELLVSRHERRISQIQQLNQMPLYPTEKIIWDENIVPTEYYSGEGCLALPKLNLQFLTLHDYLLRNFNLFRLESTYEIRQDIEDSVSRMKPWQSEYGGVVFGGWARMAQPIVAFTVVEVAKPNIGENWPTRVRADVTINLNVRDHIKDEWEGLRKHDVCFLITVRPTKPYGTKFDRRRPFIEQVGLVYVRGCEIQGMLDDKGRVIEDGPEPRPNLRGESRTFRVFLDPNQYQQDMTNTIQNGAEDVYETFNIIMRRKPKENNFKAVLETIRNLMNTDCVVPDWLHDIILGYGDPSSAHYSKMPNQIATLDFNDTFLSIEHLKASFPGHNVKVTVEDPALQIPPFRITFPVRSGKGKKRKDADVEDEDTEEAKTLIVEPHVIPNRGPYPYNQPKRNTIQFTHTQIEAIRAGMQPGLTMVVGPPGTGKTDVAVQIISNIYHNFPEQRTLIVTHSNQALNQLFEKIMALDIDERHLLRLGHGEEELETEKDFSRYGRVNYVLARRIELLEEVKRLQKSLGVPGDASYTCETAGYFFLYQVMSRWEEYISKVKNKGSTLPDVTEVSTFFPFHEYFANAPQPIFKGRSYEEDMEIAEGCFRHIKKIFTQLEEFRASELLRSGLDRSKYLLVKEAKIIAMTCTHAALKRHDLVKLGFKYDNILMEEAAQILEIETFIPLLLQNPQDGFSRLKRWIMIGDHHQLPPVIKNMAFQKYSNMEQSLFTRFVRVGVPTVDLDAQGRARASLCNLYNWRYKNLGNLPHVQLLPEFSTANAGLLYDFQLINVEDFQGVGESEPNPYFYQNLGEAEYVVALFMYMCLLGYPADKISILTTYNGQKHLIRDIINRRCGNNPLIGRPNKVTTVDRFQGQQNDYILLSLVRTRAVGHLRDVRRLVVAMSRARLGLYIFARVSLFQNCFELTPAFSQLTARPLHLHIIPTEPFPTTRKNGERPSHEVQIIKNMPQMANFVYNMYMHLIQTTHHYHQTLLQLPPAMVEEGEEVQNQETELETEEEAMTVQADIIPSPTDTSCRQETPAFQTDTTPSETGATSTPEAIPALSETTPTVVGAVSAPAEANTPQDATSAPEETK

T2: Aquarius K829A (human) (UniProt O60306)
T2 sequence: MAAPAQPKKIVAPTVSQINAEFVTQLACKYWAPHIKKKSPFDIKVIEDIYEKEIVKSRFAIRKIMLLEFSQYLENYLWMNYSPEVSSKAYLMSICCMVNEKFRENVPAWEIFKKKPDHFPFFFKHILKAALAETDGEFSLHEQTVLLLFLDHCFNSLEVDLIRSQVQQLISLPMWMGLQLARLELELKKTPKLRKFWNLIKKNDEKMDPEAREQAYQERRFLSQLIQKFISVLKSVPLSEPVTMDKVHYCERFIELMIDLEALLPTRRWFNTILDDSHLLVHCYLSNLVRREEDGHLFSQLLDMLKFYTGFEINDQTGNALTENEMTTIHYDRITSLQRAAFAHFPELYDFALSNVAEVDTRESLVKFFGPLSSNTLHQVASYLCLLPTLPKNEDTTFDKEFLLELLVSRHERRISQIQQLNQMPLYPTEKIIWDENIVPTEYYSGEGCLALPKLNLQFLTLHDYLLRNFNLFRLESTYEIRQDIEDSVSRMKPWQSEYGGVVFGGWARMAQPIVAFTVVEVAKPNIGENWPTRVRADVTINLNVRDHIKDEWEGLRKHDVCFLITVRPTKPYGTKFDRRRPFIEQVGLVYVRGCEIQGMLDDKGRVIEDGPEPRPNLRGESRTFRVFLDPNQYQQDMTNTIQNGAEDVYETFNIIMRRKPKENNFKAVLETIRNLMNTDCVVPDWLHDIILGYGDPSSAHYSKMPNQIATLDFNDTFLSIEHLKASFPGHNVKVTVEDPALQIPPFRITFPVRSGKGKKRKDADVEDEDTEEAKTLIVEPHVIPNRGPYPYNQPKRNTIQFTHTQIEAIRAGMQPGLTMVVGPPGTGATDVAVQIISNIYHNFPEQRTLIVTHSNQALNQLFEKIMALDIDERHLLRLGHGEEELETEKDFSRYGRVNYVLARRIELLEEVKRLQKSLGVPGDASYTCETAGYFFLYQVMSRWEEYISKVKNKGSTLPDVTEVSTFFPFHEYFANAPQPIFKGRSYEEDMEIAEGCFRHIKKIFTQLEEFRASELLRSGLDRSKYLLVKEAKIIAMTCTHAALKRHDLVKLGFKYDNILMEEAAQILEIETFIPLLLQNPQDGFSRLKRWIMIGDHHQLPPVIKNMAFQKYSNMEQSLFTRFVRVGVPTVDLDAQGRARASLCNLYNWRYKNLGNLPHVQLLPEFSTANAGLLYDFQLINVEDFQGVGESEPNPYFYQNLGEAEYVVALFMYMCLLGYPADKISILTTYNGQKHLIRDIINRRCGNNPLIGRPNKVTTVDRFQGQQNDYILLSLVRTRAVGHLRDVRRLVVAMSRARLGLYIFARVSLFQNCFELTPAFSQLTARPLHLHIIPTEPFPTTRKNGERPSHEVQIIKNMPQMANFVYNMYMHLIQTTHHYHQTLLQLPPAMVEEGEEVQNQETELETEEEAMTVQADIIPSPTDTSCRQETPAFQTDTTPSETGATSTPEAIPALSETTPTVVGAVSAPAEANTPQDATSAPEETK


Tests used:
[1] = molecular target: T1, Aquarius (wild type) (human); assay: pull-down; C-terminally 8×His-tagged Aquarius (wild type or K829A) co-expressed with the untagged ΔISCC complex in High Five cells; HisTrap Ni(II) column (400 mM NaCl lysis buffer), imidazole gradient, then Q Sepharose; peak fractions of stoichiometric IBC
[2] = molecular target: T2, Aquarius K829A (human); assay: as above

Row | binding [1] | binding [2] | Molecule
1 | binds | binds | PPIE (from UniProt Q9UNP9 1-301) (enzyme)
2 | binds | binds | SYF1 (protein, UniProt Q9HCS7 1-855) MVVMARLSRPERPDLVFEEEDLPYEEEIMRNQFSVKCWLRYIEFKQGAPKPRLNQLYERALKLLPCSYKLWYRYLKARRAQVKHRCVTDPAYEDVNNCHERAFVFMHKMPRLWLDYCQFLMDQGRVTHTRRTFDRALRALPITQHSRIWPLYLRFLRSHPLPETAVRGYRRFLKLSPESAEEYIEYLKSSDRLDEAAQRLATVVNDERFVSKAGKSNYQLWHELCDLISQNPDKVQSLNVDAIIRGGLTRFTDQLGKLWCSLADYYIRSGHFEKARDVYEEAIRTVMTVRDFTQVFDSYAQFEESMIAAKMETASELGREEEDDVDLELRLARFEQLISRRPLLLNSVLLRQNPHHVHEWHKRVALHQGRPREIINTYTEAVQTVDPFKATGKPHTLWVAFAKFYEDNGQLDDARVILEKATKVNFKQVDDLASVWCQCGELELRHENYDEALRLLRKATALPARRAEYFDGSEPVQNRVYKSLKVWSMLADLEESLGTFQSTKAVYDRILDLRIATPQIVINYAMFLEEHKYFEESFKAYERGISLFKWPNVSDIWSTYLTKFIARYGGRKLERARDLFEQALDGCPPKYAKTLYLLYAQLEEEWGLARHAMAVYERATRAVEPAQQYDMFNIYIKRAAEIYGVTHTRGIYQKAIEVLSDEHAREMCLRFADMECKLGEIDRARAIYSFCSQICDPRTTGAFWQTWKDFEVRHGNEDTIKEMLRIRRSVQATYNTQVNFMASQMLKVSGSATGTVSDLAPGQSGMDDMKLLEQRAEQLAAEAERDQPLRAQSKILFVRSDASREELAELAQQVNPEEIQLGEDEDEDEMDLEPNEVRLEQQSVPAAVFGSLKED

Second part, the molecule before the results:

Row | Molecule | binding [1] | binding [2]
3 | ISY1 (protein, UniProt Q9ULR0 1-285) MARNAEKAMTALARFRQAQLEEGKVKERRPFLASECTELPKAEKWRRQIIGEISKKVAQIQNAGLGEFRIRDLNDEINKLLREKGHWEVRIKELGGPDYGKVGPKMLDHEGKEVPGNRGYKYFGAAKDLPGVRELFEKEPLPPPRKTRAELMKAIDFEYYGYLDEDDGVIVPLEQEYEKKLRAELVEKWKAEREARLARGEKEEEEEEEEEINIYAVTEEESDEEGSQEKGGDDSQQKFIAHVPVPSQQEIEEALVRRKKMELLQKYASETLQAQSEEARRLLGY | binds | binds
4 | CCDC16 (protein, UniProt Q96NB3 1-372) MASSASARTPAGKRVINQEELRRLMKEKQRLSTSRKRIESPFAKYNRLGQLSCALCNTPVKSELLWQTHVLGKQHREKVAELKGAKEASQGSSASSAPHSVKRKAPDADDQDVKRAKATLVPQVQPSTSAWTTNFDKIGKEFIRATPSKPSGLSLLPDYEDEEEEEEEEEGDGERKRGDASKPLSDAQGKEHSVSSSREVTSSVLPNDFFSTNPPKAPIIPHSGSIEKAEIHEKVVERRENTAEALPEGFFDDPEVDARVRKVDAPKDQMDKEWDEFQKAMRQVNTISEAIVAEEDEEGRLDRQIGEIDEQIECYRRVEKLRNRQDEIKNKLKEILTIKELQKKEEENADSDDEGELQDLLSQDWRVKGALL | binds | binds
